PubChem BioAssay AID1224826 – NIAID | 2016
Here is a random part of about 17,000 reagents tested. About 1,110 of them (6.6%) were called active. 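Active means lowered or raised reporter signal; replicate intensities are raw and not normalised per plate.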 Unmarked entries are inactive. Not all columns of the deposit are shown.

Purpose: 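Genes that change LPS-induced Tnf promoter activity in mouse macrophages when knocked down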 (primary screen)
System: RAW264.7 G9 macrophages from mouse bearing reporters for p65 (GFP) and the Tnf promoter (mCherry)
Reagent: siRNA pool against mouse genes, 100 nM
Timing: 16 h of LPS stimulation, after 2 days of siRNA transfection
Conditions: bacterial lipopolysaccharide (Salmonella minnesota R595), 10 ng/ml
Detection: 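Imaged Tnf reporter mCherry in nuclei, minus background, normalised per plate to the median and expressed as robust z-scores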
Scale: Tnf reporter robust z-score: higher = stronger Tnf promoter reporter signal after LPS
Hit rule: 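Called active when robust z-score is at most -1.3, matching the median of the Tlr4 knock-down control, or over 3; control wells and wells with under 50 cells never active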
Meaning of the calls: active = Tnf reporter clearly lowered or raised; inactive = no clear change in Tnf reporter

For Or10p21 the deposit lists Tnf reporter robust z-score 1.65; fewer than 50 cells in well enough cells in well. With knock-down of Rd3, the record shows fewer than 50 cells in well fewer than 50 cells per well; well left out of calls. Against Dnajc17, the values are Tnf reporter robust z-score -0.45; fewer than 50 cells in well enough cells in well. Knock-down of Dicer1 came out at: Tnf reporter robust z-score 2.67; fewer than 50 cells in well enough cells in well.

Part of the list above, set out differently.
Gene | Tnf reporter robust z-score | fewer than 50 cells in well
Or10p21 | 1.65 | enough cells in well
Rd3 | – | fewer than 50 cells per well; well left out of calls

Continued:
Rpl6 scored fewer than 50 cells in well fewer than 50 cells per well; well left out of calls. For Rln1, the entry reads fewer than 50 cells in well fewer than 50 cells per well; well left out of calls. Knock-down of Clec4a3 came out at: fewer than 50 cells in well fewer than 50 cells per well; well left out of calls. Against Dnah11, the values are Tnf reporter robust z-score -0.33; fewer than 50 cells in well enough cells in well. Aspa showed Tnf reporter robust z-score 0.15; fewer than 50 cells in well enough cells in well. With knock-down of Plekhm1, the screen gave Tnf reporter robust z-score 1.7; fewer than 50 cells in well enough cells in well.

Bicdl2 showed Tnf reporter robust z-score 1.76; fewer than 50 cells in well enough cells in well. After knock-down of Arhgef18 the results were Tnf reporter robust z-score -0.45; fewer than 50 cells in well enough cells in well. Knock-down of Gtsf2 came out at: Tnf reporter robust z-score 2.18; fewer than 50 cells in well enough cells in well. Depletion of Grap2 came out at: Tnf reporter robust z-score -0.29; fewer than 50 cells in well enough cells in well.
